Record: PubChem BioAssay AID1159584 (Peter MacCallum Cancer Centre, 2016)

- Aim: 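Knock-downs that harm CDH1-null cells more than parental MCF10A cells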 (primary screen)
- Cell system: human MCF10A breast epithelial cells, parental and CDH1-null
- Knock-down reagent: siRNA against human genes
- Read-out: 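Cell viability by CellTiter-Glo ATP luminescence, each line scaled to the mean of mock wells across plates, then CDH1-null over parental ratio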
- Reading the numbers: CDH1-null / parental viability ratio: higher = CDH1-null cells survive relatively better than parental; CDH1-null viability vs mock: higher = more viable CDH1-null cells; parental viability vs mock: higher = more viable parental cells
This is a random part of about 18,000 reagents. No sequences are given here. The record does not give: the amount of reagent, the time to read-out.

gene	CDH1-null / parental viability ratio	CDH1-null viability vs mock (fraction of mock)	parental viability vs mock (fraction of mock)
DAD1 (GeneID 1603)	1.1	0.98	0.89
ANKRD45 (GeneID 339416)	1.01	0.88	0.87
ZNF695 (GeneID 57116)	0.86	0.61	0.71
OR8G5 (GeneID 219865)	0.8	0.56	0.7
ZBTB1 (GeneID 22890)	1.17	1.08	0.92
KBTBD12 (GeneID 166348)	0.92	0.87	0.95
RAB9A (GeneID 9367)	0.92	0.92	1
SLC24A3 (GeneID 57419)	1.19	0.83	0.7
NAGLU (GeneID 4669)	1	0.72	0.72
NETO1 (GeneID 81832)	0.99	1.17	1.18
ABCB11 (GeneID 8647)	0.99	1.03	1.04
RTCB (GeneID 51493)	0.94	0.85	0.9
HMGB2 (GeneID 3148)	1.11	1.09	0.98
WDR64 (GeneID 128025)	1.07	0.88	0.82
SLC8A1 (GeneID 6546)	1.2	1.03	0.86
H2BC13 (GeneID 8340)	1.18	1.06	0.9
C1S (GeneID 716)	1.06	0.91	0.86
DOCK5 (GeneID 80005)	1.2	0.66	0.55
SNAPC1 (GeneID 6617)	1.21	1.02	0.84
SNN (GeneID 8303)	1.22	0.6	0.49
JTB (GeneID 10899)	1.17	0.96	0.82
SERHL (GeneID 94009)	1.05	0.8	0.76
LRRC24 (GeneID 441381)	1.17	0.49	0.42
TEX29 (GeneID 121793)	0.91	0.8	0.88
FGF21 (GeneID 26291)	1.65	1.42	0.86
OR10A4 (GeneID 283297)	0.84	0.76	0.9
VKORC1 (GeneID 79001)	0.99	0.67	0.68
KRTAP19-2 (GeneID 337969)	1.35	0.46	0.34
PAXX (GeneID 286257)	0.61	0.3	0.49
SETD3 (GeneID 84193)	0.96	0.54	0.56
SP3 (GeneID 6670)	1.18	1.18	1
KIAA0753 (GeneID 9851)	0.89	0.74	0.83
THUMPD1 (GeneID 55623)	1.03	0.64	0.62
ADAMTS13 (GeneID 11093)	1.21	0.85	0.7
CTNNB1 (GeneID 1499)	0.92	0.86	0.93
RSPH14 (GeneID 27156)	0.93	0.8	0.86
OR2M2 (GeneID 391194)	1.59	0.92	0.58
DEPDC4 (GeneID 120863)	1.16	0.81	0.7
H2AC16 (GeneID 8332)	1.48	0.83	0.56
FGF16 (GeneID 8823)	0.96	0.96	1
OR3A4P (GeneID 390756)	1.2	0.91	0.76
GPR139 (GeneID 124274)	0.85	0.8	0.94
GGT5 (GeneID 2687)	1.05	0.61	0.58
RBMX (GeneID 27316)	0.86	0.65	0.76
GABRD (GeneID 2563)	1.19	0.76	0.64
GOT1 (GeneID 2805)	1.19	1.12	0.94
CHST12 (GeneID 55501)	0.87	0.65	0.75
CNOT8 (GeneID 9337)	1.13	0.96	0.85
CIZ1 (GeneID 25792)	1.05	1.03	0.98
CLIC6 (GeneID 54102)	1.11	0.92	0.83
RRBP1 (GeneID 6238)	0.98	1.04	1.06
CYP2C9 (GeneID 1559)	1.06	1.14	1.08
PTPN3 (GeneID 5774)	1.28	0.97	0.76
KLHDC9 (GeneID 126823)	0.76	0.68	0.89
ZNF136 (GeneID 7695)	0.96	1.1	1.15
SLC35B4 (GeneID 84912)	0.97	0.38	0.39
ITK (GeneID 3702)	1.09	1.05	0.96
LCE2B (GeneID 26239)	0.69	0.8	1.16
ADGRG5 (GeneID 221188)	0.67	0.62	0.92
IVL (GeneID 3713)	1.36	0.57	0.42
MAP1B (GeneID 4131)	0.78	0.74	0.95
PDE4DIP (GeneID 9659)	0.75	0.6	0.8
OMD (GeneID 4958)	1.14	1.09	0.96
CYP26B1 (GeneID 56603)	0.89	0.76	0.85
RPL9 (GeneID 6133)	1.56	0.53	0.34
MYBPH (GeneID 4608)	1.04	0.47	0.45
ZSCAN20 (GeneID 7579)	0.84	0.54	0.64
MINDY1 (GeneID 55793)	1.03	0.92	0.89
MAP1S (GeneID 55201)	0.92	0.68	0.74
PRRC1 (GeneID 133619)	0.98	0.84	0.86
KLK15 (GeneID 55554)	1.04	0.81	0.78
DNLZ (GeneID 728489)	0.97	0.76	0.78
OC90 (GeneID 729330)	0.99	0.83	0.84
STEAP4 (GeneID 79689)	0.89	0.68	0.76
SSX9P (GeneID 280660)	1.23	1.08	0.88
ZNF232 (GeneID 7775)	1.02	0.86	0.84
IL11RA (GeneID 3590)	1.15	1.08	0.94
ZNF833P (GeneID 401898)	0.84	0.7	0.83
ZNF19 (GeneID 7567)	1.13	0.6	0.53
SLX4IP (GeneID 128710)	0.9	0.74	0.82
FASTKD4 (GeneID 9238)	0.97	0.86	0.89
PCDH19 (GeneID 57526)	1.07	0.91	0.85
SH3PXD2A (GeneID 9644)	0.64	0.42	0.66
UVRAG (GeneID 7405)	0.84	0.79	0.94
FBH1 (GeneID 84893)	1.16	1.1	0.95
EMC2 (GeneID 9694)	1.06	1	0.94
AHRR (GeneID 57491)	1.07	0.88	0.82

Entries above whose target name starts with O or o:
gene	CDH1-null / parental viability ratio	CDH1-null viability vs mock (fraction of mock)	parental viability vs mock (fraction of mock)
OR8G5 (GeneID 219865)	0.8	0.56	0.7
OR10A4 (GeneID 283297)	0.84	0.76	0.9
OR2M2 (GeneID 391194)	1.59	0.92	0.58
OR3A4P (GeneID 390756)	1.2	0.91	0.76
OMD (GeneID 4958)	1.14	1.09	0.96
OC90 (GeneID 729330)	0.99	0.83	0.84
